At least one structure is not confirmed: it was looked up by name or label, or the drawing left a doubt.
Experiments:
Type in all cases: cell-based
[1] = system: MMP-3; assay: MMP-3 expression in chondrocytes in alginate beads, IL1-α stimulation; settings: 10 μM; two-hour pre-treatment, twenty-four hour IL1-α stimulation; FIG. 16B
[2] = system: inflamed chondrocytes; assay: Collagen in extra-cellular matrix of inflamed chondrocytes (anabolism); settings: FIG. 18A
From the text: Chondrocytes in alginate beads were subjected to a two-hour polyphenols pre-treatment followed by a twenty-four hour IL1-α stimulation.
Next it was shown that oleuropein metabolites prevent collagen breakdown in inflamed chondrocytes (FIGS. 18A and 18B). In this regard, collagen in extra-cellular matrix corresponds to the collagen synthesized by the cells, i.e., anabolism. […] Collagen in culture media corresponds to the collagen degraded by cells and released in the media, i.e., […].

[3] = system: MMP-13; assay: MMP-13 expression in chondrocytes in alginate beads, IL1-α stimulation; settings: 10 μM; two-hour pre-treatment, twenty-four hour IL1-α stimulation; FIG. 16C

## OCCc1ccc(O)c(O)c1 [hydroxytyrosol, 3,4-dihydroxyphenylethanol, reference compound]
[1]
  MMP-3 expression (protective effect): except hydroxytyrosol
[2]
  collagen in extra-cellular matrix (collagen synthesized by the cells, anabolism): protective effect
[3]
  MMP-13 expression (protective effect): except hydroxytyrosol
